Measured values as given in patent publication US20190119696A1 (YEDA RESEARCH AND DEVELOPMENT, published 2019).

Columns and labels:
[1] = target: T1, APS1 (small subunit of ADP-glucose pyrophosphorylase, AGPase; AT5G48300), endogenous in Arabidopsis plants (Arabidopsis thaliana) (UniProt P55228); assay: in planta trapping of intermolecular disulfide complexes; non-reducing SDS-PAGE, anti-HA immunoblot (FIG. 1B: the additional complex did not form in ACHT1 extracts)
T1 sequence (looked up): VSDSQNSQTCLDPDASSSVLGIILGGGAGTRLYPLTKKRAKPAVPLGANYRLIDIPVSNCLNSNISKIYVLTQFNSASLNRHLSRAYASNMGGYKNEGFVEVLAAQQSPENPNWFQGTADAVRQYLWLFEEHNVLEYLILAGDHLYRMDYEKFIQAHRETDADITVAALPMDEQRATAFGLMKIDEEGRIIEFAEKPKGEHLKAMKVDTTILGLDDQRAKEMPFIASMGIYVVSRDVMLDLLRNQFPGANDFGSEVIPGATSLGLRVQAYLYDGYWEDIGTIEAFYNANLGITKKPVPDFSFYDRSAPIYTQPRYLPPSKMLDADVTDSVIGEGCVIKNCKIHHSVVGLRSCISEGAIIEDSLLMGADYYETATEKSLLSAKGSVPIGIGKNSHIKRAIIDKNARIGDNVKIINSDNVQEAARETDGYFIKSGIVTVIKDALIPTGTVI

[2] = target: T2, 2-Cys Prx (2-Cys peroxiredoxin, 2-Cys PrxA, At3g11630), endogenous in Arabidopsis plants (Arabidopsis thaliana) (UniProt Q96291); assay: in planta trapped intermolecular disulfide complexes; denatured non-reduced extracts, protein blot
T2 sequence (looked up): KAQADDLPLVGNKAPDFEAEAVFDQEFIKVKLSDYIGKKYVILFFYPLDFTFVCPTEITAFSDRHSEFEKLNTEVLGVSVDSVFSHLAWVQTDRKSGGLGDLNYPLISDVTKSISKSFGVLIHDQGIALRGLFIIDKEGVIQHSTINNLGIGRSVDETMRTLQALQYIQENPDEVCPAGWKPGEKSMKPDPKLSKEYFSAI

[3] = target: T2, 2-Cys Prx (2-Cys peroxiredoxin, 2-Cys PrxA, At3g11630), endogenous in Arabidopsis plants (Arabidopsis thaliana); assay: in planta trapped intermolecular disulfide complexes; non-reducing SDS-PAGE, immunoblot

For “ACHT1MT (Arabidopsis thaliana atypical cysteine histidine-rich thioredoxin 1), HA-tagged (enzyme)”, the binding [1] was “no binding”, the binding [2] was “binds” and the binding [3] was “binds”.

These are yes or no findings as the source states them, for the method shown. For part of these data: Binding calls can cover weak binding; strength is not graded here. For part of these data: Sequences can lack the tags named with a protein.
